Assay results: ChEMBL document CHEMBL6134773, “Metal-free synthesis of N-fused quinazolino-quinazoline-diones as a MALAT1 RNA triple helix intercalator” (RSC Med Chem, 2025)

Test system: HeLa
Test: Cytotoxicity against human HeLa cells measured after 24 hrs by neutral red assay
Format: functional

SMILES: COc1cccc2c1C(=O)c1c(O)c3c(c(O)c1C2=O)C[C@@](O)(C(=O)CO)C[C@@H]3O[C@H]1C[C@H](N)[C@H](O)[C@H](C)O1 [DOXORUBICIN]
- IC50: 1.39 µM
